# Screening data, single-dose tests

Amino acid sequences for entries named in this document (tags omitted). Residues count along the entry.
UniProt I6X8D2, whole entry: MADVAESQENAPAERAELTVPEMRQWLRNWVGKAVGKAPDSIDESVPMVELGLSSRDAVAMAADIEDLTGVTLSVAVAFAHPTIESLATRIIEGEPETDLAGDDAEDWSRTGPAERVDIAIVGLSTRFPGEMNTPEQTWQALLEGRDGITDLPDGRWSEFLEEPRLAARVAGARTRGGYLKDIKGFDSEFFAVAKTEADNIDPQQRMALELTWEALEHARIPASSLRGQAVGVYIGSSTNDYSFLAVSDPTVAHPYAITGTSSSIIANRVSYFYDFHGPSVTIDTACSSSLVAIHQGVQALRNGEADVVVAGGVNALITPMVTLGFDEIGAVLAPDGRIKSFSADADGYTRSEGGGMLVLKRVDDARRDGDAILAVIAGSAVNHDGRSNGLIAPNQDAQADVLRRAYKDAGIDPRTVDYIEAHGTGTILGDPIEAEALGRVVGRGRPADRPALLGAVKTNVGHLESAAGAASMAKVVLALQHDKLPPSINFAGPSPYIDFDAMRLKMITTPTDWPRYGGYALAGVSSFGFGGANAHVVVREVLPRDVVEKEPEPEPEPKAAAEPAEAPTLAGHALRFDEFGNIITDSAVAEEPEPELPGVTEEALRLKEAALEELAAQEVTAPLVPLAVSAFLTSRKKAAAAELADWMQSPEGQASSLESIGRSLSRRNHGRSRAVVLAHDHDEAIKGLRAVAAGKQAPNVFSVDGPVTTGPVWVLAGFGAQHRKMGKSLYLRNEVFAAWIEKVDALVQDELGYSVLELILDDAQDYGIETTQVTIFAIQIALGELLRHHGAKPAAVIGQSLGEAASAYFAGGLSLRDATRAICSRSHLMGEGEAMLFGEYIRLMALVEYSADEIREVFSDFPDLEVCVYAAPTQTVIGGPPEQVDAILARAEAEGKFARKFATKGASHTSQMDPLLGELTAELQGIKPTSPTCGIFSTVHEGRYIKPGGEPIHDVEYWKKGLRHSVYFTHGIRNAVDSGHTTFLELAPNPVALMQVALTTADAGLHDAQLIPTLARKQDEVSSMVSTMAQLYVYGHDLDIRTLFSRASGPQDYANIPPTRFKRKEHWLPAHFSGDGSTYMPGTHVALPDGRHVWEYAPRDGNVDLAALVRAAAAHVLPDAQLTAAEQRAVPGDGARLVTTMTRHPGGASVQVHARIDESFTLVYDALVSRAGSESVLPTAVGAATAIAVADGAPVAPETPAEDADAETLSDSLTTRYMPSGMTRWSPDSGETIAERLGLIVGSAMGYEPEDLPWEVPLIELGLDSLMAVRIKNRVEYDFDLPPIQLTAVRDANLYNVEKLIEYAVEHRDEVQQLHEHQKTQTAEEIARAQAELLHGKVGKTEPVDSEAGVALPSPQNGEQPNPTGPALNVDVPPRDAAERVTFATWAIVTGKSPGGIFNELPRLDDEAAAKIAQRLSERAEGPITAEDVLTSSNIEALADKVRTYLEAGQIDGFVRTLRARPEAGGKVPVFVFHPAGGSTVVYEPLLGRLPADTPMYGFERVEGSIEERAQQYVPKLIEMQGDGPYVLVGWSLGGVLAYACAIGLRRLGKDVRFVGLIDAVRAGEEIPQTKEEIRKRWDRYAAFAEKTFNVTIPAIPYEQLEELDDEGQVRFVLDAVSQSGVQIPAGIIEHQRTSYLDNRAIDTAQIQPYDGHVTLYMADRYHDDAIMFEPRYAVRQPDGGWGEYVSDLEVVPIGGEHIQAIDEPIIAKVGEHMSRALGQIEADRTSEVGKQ
UniProt A4I591, 1-473: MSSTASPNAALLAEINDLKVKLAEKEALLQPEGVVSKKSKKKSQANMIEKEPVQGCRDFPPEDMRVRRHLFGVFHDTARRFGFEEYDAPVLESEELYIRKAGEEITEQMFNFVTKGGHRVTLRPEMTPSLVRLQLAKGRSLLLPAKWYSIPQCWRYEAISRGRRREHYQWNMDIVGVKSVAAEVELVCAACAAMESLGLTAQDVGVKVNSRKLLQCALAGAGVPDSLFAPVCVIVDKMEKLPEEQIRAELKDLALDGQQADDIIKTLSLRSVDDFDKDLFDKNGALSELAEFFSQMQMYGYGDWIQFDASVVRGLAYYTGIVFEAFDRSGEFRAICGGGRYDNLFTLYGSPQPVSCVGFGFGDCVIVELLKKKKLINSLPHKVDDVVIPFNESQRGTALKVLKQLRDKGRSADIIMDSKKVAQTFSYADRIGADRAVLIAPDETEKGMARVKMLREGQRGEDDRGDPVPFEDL
UniProt P9WNZ1, whole entry: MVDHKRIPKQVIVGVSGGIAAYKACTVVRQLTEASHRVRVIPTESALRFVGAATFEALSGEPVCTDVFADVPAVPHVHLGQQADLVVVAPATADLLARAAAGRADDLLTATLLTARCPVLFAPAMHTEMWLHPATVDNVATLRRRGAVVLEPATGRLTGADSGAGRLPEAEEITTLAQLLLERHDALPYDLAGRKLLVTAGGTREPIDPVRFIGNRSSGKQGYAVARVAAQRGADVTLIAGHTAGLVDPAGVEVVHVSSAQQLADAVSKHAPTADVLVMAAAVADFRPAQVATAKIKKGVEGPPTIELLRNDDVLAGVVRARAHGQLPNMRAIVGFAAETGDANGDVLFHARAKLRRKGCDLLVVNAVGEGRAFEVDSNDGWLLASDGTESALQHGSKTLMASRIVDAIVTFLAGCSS

The values are deposited in ChEMBL (CHEMBL3988442, “University of Dundee, Small-Polar-MMV Screening Library” (2021)).

Pks13 thioesterase: 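Enzyme assay of the thioesterase domain of polyketide synthase 13; the read-out is not stated. Target: Polyketide synthase Pks13, Mycobacterium tuberculosis (UniProt I6X8D2). Concentration: 30 µM. Higher reads as stronger inhibition (inferred from which compounds were picked for retests). Of about 67,000 compounds tested this way, about 300 (0.46%) reached 50% or more in at least one test.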
LiHisRS: 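Histidine-tRNA ligase, Leishmania infantum (UniProt A4I591). Enzyme assay of histidyl-tRNA synthetase; the read-out is not stated. Tested at 30 µM. Direction is inferred from retests: higher values go with stronger inhibition. The assay is labelled LdHisRS but filed under L. infantum. Of about 69,000 compounds tested this way, about 410 (0.6%) reached 50% or more in at least one test.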
CoaBC: 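Coenzyme A biosynthesis protein CoaBC, Mycobacterium tuberculosis (UniProt P9WNZ1). Enzyme assay of CoaBC with a phosphate dye (Biomol Green) read at 650 nm. Concentration: 30 µM. Higher reads as stronger inhibition, judged from the few compounds that gave an IC50. Most strong results did not repeat in a second test. About 67,000 compounds were tested under these conditions; 0.06% (about 40) showed 50% or more at least once.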

Results are given as percent effect.
The controls that fix the scale are not given in the record; negative values are as filed.
The compounds are a random part of those screened.
A dash means the value is not listed here; it may have been measured.

SMILES,Pks13 thioesterase,LiHisRS,CoaBC
CN(C)Cc1nnc(C2CCN(C(=O)CCc3cccs3)CC2)n1C,-7.77,23.08,9.168
CC[S+](CC)[c-]1c(=O)[nH]c(=O)n(CCc2ccc(F)cc2)c1=O,-11.1,8.333,1.381
Cc1cnn(C2CCCN(C(=O)c3c(C)oc4nc[nH]c(=O)c34)C2)c1 (stereo not given),-40.99,20,-
O=C1CCCCCN1Cc1cccc(OC(F)F)c1,2.865,15,7.585
COC(=O)c1ccc(N2CCN(CCN3CCOCC3)C(C)C2)cc1 (stereo not given),-5.943,13.64,1.169
CCn1cc(CN2CCCn3nc(CNC(=O)N(C)C)cc3C2)cn1,-10.61,10.4,3.016
CC(C)(C)c1ccc(-c2n[nH]c3c2CN(CC2CCOC2)CC3)cc1 (stereo not given),-20.87,6.383,3.474
Cc1cn[nH]c1C1COCCN1C(=O)c1cc(F)ccc1F (stereo not given),-22.87,5.369,-5.479
O=C(c1cc(Cl)c[nH]c1=O)N1C[C@@H]2CC[C@H](C1)N(Cc1ccccc1)C2,22.99,-1.064,5.977
CC(NC(=O)NCCOc1ccc(Cl)cc1)c1nncn1C (stereo not given),-9.185,11.57,3.672
CCCn1nnnc1CSc1nccn1CC,-5.285,6.25,-17.55
CN(C)C(=O)c1ccc(C2CCCN2C(=O)c2cccc3c2OCC3)s1 (stereo not given),-37.52,3.797,-1.141
Cc1noc(C)c1S(=O)(=O)N1CCc2nc(C3CCNCC3)ncc2C1,9.77,17.71,1.961
CCCS(=O)(=O)N1C[C@@H](OCc2ccncc2)[C@H]2OCCC[C@H]21,-9.872,16.36,3.782
O=C(NCc1nnc2n1CCC2)c1cn(-c2ccccc2)nn1,-5.25,9.836,-2.512
CC(C)SCc1cccc(NC2CCN(C)C2=O)c1 (stereo not given),-32.58,1.667,-1.463
CCOc1ncnc2c1CCN(S(=O)(=O)C1CC1)CC2,4.229,-5.263,0.2114
Cc1ccccc1CS(=O)(=O)CC(=O)N(C)Cc1ccccc1,-4.085,10.32,1.966
CCC1c2ccsc2CCN1C(=O)NCCNc1ncccn1 (stereo not given),-12.77,2.128,5.44
CCN1C(=O)C(c2ccccc2)CC12CCN(CCO)CC2 (stereo not given),-21.98,13.59,4.326
Cc1n[nH]c(C)c1CCC(=O)NCC1CCCN(C2CCCC2)C1 (stereo not given),-3.154,14.29,1.942
Cc1cnn(CC2CCCN2CC(=O)N(C)Cc2ccco2)c1 (stereo not given),6.763,17.81,0.641
COc1ccc(C2CCCN2S(=O)(=O)c2cc(F)ccc2F)cc1 (stereo not given),-,3.191,1.684
Nc1no[n+]([O-])c1C(=O)NCc1ccccn1,0.09258,7.692,-0.241
CCc1nc(C2CCCN2C(=O)CCc2ccc3c(c2)OCO3)no1 (stereo not given),-4.384,0,11.8
COCC1CN(C(=O)Cc2ccccn2)Cc2c1cnn2CC1CC1 (stereo not given),4.887,21,3.585
CC(C)c1nc(CN2CCCC(O)C2)cs1 (stereo not given),-29.52,9.917,7.991
CCC1CN(C)c2ccccc2CN1C(=O)c1c[nH]c(=O)cc1C (stereo not given),-9.987,10.2,8.099
Cc1ccc(NC2CCN(C(=O)c3cc(C(N)=O)cs3)CC2)nn1,-11.22,6.757,3.259
Cc1cc(C(=O)NC2CCc3c(ccc(=O)n3CCN(C)C)C2)no1 (stereo not given),-3.258,7.547,0
c1cnnc(N2CCCC(NCc3nc(-c4ccsc4)no3)C2)c1 (stereo not given),-21,31.18,2.558
COCCN(Cc1ccc(F)cc1Cl)C(=O)c1ccc(=O)[nH]n1,-19.75,6.731,-2.532
Cc1ccc(-c2nc(CNC3CCc4ncnn4C3)co2)cc1 (stereo not given),-12.39,8.696,6.581
Cc1cccc(-c2c[nH]c(C3CCCN3C(=O)C3CCOCC3)n2)c1 (stereo not given),-11.71,8.333,4.466
c1cncc(N2CC[C@@H]3CN(CC4CC4)C[C@@H]3C2)c1,9.251,15.38,4.762
Cn1cc2c(n1)C(COCC1CC1)CN(Cc1ccsc1)C2 (stereo not given),-24.42,8.824,1.269
O=C1Nc2ccccc2NC12CCN(c1cccc(C(F)(F)F)n1)CC2,-5.471,14.58,10.1
Cc1ccoc1C(=O)N1CC[C@@H]2CN(C3CCOCC3)CCO[C@@H]2C1,-13.25,13.86,4.579
Cc1noc(C2CCN(C(=O)CCCNc3ncccn3)CC2)n1,-5.521,13.89,5.789
NC(=O)c1ccc(S(=O)(=O)NC2CCN(Cc3ccccc3)C2=O)cc1 (stereo not given),-28.98,-14.61,-1.799
CCOCCCNS(=O)(=O)c1ccc2c(c1)NC(=O)C(C)O2 (stereo not given),-29.02,8.511,-2.822
CC1CCCCN1c1nc2c(c(=O)[nH]1)CCN(Cc1cccnc1)C2 (stereo not given),-24.3,16.67,-1.944
O=C(c1cc(Cn2ccc3ccccc32)[nH]n1)N1CCOCC1,-16.34,1.176,-0.5076
CCc1nsc(NC2CCCn3nc(COC)nc32)n1 (stereo not given),-15.56,14.56,4.911
COC(=O)C(C)(C)NC(=O)c1cc(COc2ccccc2OC)[nH]n1,-3.791,12.9,-0.2457
CN(C)CC1CSCCCN1S(=O)(=O)Cc1ccc(C(F)(F)F)cc1 (stereo not given),-30.48,13.91,-19.24
O=C([C@H]1CCCO1)N1CC[C@@H](O)[C@@H]1Cc1ccccc1,-20.11,-250.5,-16.24
C=Cc1ccc(CSc2nc3c(c(=O)[nH]2)CN(CCC)CC3)cc1,-10.75,12.17,-4.863
Cc1ccnc(C2CCN(C(=O)c3cnn(C)c3)C2)n1 (stereo not given),-30.12,13.54,-5.637
O=C1CCCN1CCc1noc(-c2ccsc2)n1,-28.67,25,11.06
COCc1nc(C(=O)NS(=O)(=O)c2cc(Br)ccc2C)cs1,-26.58,12.04,-3.158
O=C(c1ccc2[nH]ccc2c1)N1Cc2nc(CN3CCCC3)oc2C1,-13.42,16.24,5.833
Cc1cc(C)n(CCNCc2cc(-c3ccccc3)c[nH]c2=O)n1,3.066,16.11,13.7

The first 6 entries again:

* CN(C)Cc1nnc(C2CCN(C(=O)CCc3cccs3)CC2)n1C | Pks13 thioesterase: -7.77%; LiHisRS: 23.08%; CoaBC: 9.168%
* CC[S+](CC)[c-]1c(=O)[nH]c(=O)n(CCc2ccc(F)cc2)c1=O | Pks13 thioesterase: -11.1%; LiHisRS: 8.333%; CoaBC: 1.381%
* Cc1cnn(C2CCCN(C(=O)c3c(C)oc4nc[nH]c(=O)c34)C2)c1 (stereo not given) | Pks13 thioesterase: -40.99%; LiHisRS: 20%
* O=C1CCCCCN1Cc1cccc(OC(F)F)c1 | Pks13 thioesterase: 2.865%; LiHisRS: 15%; CoaBC: 7.585%
* COC(=O)c1ccc(N2CCN(CCN3CCOCC3)C(C)C2)cc1 (stereo not given) | Pks13 thioesterase: -5.943%; LiHisRS: 13.64%; CoaBC: 1.169%
* CCn1cc(CN2CCCn3nc(CNC(=O)N(C)C)cc3C2)cn1 | Pks13 thioesterase: -10.61%; LiHisRS: 10.4%; CoaBC: 3.016%